This passage reports binding results from article PMC5024519.

Amino acid sequences for entries named in this document (tags omitted).
UniProt Q22516: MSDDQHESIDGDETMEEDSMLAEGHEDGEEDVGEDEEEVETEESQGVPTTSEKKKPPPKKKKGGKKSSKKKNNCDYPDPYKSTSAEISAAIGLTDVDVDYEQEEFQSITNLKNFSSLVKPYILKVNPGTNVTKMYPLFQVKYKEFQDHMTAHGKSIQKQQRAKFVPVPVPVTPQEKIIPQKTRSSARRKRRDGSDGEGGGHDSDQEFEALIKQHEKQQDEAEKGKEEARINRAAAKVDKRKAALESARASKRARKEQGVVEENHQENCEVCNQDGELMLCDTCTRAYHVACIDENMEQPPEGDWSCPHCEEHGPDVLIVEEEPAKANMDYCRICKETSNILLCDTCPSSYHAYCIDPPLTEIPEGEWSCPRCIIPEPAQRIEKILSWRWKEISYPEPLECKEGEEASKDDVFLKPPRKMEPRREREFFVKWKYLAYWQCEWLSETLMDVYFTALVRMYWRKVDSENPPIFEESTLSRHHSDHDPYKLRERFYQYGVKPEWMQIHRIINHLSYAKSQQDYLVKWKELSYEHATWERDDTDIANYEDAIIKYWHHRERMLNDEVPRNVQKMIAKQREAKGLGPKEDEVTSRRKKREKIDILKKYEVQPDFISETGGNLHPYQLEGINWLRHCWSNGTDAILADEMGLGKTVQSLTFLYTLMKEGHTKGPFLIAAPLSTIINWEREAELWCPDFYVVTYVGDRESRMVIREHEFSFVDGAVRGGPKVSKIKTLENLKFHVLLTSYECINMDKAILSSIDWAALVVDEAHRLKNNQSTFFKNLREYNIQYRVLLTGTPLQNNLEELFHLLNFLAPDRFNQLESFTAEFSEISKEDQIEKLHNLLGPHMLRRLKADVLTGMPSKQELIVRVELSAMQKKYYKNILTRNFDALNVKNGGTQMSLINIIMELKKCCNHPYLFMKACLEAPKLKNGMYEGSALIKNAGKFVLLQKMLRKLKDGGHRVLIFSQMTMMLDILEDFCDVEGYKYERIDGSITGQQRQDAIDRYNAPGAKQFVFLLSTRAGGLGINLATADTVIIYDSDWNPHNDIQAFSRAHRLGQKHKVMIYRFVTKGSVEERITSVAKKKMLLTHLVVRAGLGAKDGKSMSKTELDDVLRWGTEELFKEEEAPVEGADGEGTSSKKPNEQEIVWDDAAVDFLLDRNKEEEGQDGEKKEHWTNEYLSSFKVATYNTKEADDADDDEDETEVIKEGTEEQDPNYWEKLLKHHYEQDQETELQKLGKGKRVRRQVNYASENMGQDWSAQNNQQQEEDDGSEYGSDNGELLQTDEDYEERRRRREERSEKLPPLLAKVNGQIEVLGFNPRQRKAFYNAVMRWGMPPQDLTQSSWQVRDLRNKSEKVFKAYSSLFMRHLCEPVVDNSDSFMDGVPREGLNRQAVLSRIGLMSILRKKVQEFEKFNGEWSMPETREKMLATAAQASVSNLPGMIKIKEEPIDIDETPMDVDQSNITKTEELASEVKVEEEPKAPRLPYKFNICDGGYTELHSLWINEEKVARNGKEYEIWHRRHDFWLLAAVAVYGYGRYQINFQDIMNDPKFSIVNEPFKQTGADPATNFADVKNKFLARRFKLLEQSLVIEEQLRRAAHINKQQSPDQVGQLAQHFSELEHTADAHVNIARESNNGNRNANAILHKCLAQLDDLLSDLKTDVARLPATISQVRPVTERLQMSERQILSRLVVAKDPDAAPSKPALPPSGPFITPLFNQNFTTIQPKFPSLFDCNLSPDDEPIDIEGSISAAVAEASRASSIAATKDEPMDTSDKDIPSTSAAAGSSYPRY
UniProt G5EBZ4: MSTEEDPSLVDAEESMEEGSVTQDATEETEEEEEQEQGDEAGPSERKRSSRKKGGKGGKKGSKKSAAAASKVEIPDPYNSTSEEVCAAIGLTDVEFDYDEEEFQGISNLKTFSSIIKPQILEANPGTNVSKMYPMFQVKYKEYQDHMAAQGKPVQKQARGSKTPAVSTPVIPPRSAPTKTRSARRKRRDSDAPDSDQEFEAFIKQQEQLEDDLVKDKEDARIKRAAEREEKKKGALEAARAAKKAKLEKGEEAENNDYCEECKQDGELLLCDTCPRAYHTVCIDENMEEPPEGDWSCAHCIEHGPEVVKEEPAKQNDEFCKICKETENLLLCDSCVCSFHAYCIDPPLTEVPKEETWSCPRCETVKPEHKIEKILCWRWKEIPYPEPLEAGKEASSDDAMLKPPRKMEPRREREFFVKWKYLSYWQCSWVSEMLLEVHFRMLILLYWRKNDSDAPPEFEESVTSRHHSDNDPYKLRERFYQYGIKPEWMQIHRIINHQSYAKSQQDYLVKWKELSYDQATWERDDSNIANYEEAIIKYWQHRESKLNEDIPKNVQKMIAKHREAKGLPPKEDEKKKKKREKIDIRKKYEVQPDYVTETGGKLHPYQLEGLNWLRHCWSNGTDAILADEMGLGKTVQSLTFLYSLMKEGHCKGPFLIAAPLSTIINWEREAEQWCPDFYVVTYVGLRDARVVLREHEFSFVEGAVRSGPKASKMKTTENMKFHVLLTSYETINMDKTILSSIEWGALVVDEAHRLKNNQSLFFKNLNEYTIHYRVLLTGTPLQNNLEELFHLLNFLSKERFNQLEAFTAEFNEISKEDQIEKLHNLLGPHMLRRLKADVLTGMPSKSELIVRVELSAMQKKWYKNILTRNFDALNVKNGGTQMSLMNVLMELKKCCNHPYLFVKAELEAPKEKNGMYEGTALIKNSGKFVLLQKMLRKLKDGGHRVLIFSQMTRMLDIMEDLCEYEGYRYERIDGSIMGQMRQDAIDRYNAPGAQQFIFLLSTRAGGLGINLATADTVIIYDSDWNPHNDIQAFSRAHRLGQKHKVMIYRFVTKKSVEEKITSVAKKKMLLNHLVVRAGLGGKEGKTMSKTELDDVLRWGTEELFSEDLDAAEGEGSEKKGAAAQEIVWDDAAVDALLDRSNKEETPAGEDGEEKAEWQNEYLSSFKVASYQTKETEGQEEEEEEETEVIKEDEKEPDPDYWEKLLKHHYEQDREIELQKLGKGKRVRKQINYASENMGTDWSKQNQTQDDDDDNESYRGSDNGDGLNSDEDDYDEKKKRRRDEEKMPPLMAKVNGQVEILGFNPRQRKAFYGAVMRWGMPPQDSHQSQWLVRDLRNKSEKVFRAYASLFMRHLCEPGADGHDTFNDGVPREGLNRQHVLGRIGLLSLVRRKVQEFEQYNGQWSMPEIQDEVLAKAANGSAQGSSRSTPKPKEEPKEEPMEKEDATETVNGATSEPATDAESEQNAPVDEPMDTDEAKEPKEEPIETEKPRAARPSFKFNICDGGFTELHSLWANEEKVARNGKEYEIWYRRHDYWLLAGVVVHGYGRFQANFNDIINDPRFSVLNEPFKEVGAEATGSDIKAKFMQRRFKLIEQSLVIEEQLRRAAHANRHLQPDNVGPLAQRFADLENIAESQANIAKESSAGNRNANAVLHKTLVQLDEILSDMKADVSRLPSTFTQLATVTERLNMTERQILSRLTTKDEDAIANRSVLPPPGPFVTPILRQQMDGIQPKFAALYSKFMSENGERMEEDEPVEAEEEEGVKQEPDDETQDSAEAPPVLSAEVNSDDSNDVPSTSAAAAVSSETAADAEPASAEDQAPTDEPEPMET

In assay [1] the target is CHD-3::StrepIII::HA (C. elegans) (UniProt Q22516). In words: pull-down; Strep-tactin pull-down of CHD-3::StrepIII::HA from C. elegans embryonic extracts, western blot for both tagged proteins; embryos with or without the CHD-3 construct; mock: agarose resin only. (Immunoblotting shows a protein as a band on a membrane.)
Another assay deals with LET-418 (C. elegans) (UniProt G5EBZ4). In words: co-IP; anti-LET-418 immunoprecipitation from C. elegans embryonic extracts, western blot for MES-2::EGFP::3xFLAG; mock: no antibody; done in wild-type and in chd-3(eh4) embryos (chd-3 depletion does not disrupt the interaction).

No constants are given. Whether binding was seen depends on the method and setting. Binding seen in cells or lysates may run through a third protein. Some binding calls cover weakened binding; strength is not graded here. Tags and fused reporters may be left off the sequences shown.

B1: MES-2::EGFP::3xFLAG (protein, UniProt O17514 1-773)
chain: MSNSEPSTSTPSGKTKKRGKKCETSMGKSKKSKNLPRFVKIQPIFSSEKIKETVCEQGIEECKRMLKGHFNAIKDDYDIRVKDELDTDIKDWLKDASSSVNEYRRRLQENLGEGRTIAKFSFKNCEKYEENDYKVSDSTVTWIKPDRTEEGDLMKKFRAPCSRIEVGDISPPMIYWVPIEQSVATPDQLRLTHMPYFGDGIDDGNIYEHLIDMFPDGIHGFSDNWSYVNDWILYKLCRAALKDYQGSPDVFYYTLYRLWPNKSSQREFSSAFPVLCENFAEKGFDPSSLEPWKKTKIAEGAQNLRNPTCYACLAYTCAIHGFKAEIPIEFPNGEFYNAMLPLPNNPENDGKMCSGNCWKSVTMKEVSEVLVPDSEEILQKEVKIYFMKSRIAKMPIEDGALIVNIYVFNTYIPFCEFVKKYVDEDDEESKIRSCRDAYHLMMSMAENVSARRLKMGQPSNRLSIKDRVNNFRRNQLSQEKAKRKLRHDSLRIQALRDGLDAEKLIREDDMRDSQRNSEKVRMTAVTPITACRHAGPCNATAENCACRENGVCSYMCKCDINCSQRFPGCNCAAGQCYTKACQCYRANWECNPMTCNMCKCDAIDSNIIKCRNFGMTRMIQKRTYCGPSKIAGNGLFLLEPAEKDEFITEYTGERISDDEAERRGAIYDRYQCSYIFNIETGGAIDSYKIGNLARFANHDSKNPTCYARTMVVAGEHRIGFYAKRRLEISEELTFDYSYSGEHQIAFRMVQTKERSEKPSRPKSQKLSKPMTSE
Take B1: the binding result (in assay [1]; with LET-418 (C. elegans)) was “binds” each time.
